Data: the M2OR odorant receptor database
Positions count from the first letter of the chain named. The entries are a selection whose mix differs from that of the whole data set. The calls were merged from several studies; some rest on single wells. The list shows a part of the results.

Chains of the proteins cited; added tags and fusions are not shown. Chains listed by the source or under a name are the forms on record and can include a tag or linker.
O11H2, as listed by the source: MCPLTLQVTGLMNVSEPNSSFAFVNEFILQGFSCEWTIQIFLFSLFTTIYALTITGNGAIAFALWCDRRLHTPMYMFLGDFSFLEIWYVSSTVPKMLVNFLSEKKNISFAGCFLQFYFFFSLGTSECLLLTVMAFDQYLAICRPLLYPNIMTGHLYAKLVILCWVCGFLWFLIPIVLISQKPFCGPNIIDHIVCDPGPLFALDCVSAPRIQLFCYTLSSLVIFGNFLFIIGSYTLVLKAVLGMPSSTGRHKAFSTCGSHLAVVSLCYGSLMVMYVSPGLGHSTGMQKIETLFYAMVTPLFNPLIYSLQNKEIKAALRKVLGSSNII

Assays:
Settings in all cases: stereoisomer not certain
O10G3 = test system: T1, O10G3
T1 sequence (whole entry): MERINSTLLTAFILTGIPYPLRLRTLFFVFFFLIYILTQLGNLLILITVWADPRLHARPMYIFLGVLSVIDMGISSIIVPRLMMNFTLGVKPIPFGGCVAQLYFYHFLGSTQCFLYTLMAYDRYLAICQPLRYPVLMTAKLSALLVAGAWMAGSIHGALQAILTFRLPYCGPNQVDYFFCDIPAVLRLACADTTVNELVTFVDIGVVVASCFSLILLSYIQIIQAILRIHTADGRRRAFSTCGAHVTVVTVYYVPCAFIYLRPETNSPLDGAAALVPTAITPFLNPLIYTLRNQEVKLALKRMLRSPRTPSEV
In short: (§1)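 Values were gathered from published papers (main text and supplementary material), with extra details requested from the original authors when needed, and checked for typos and inconsistencies. Each receptor–molecule pair is called responsive (active) if the original authors judged the measured signal statistically different from baseline, and non-responsive (inactive) otherwise. Assay methods varied by source, often transient mammalian cell-line luciferase assays. Recorded details include cell line, G-protein, co-transfected protein and tags.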

O10G4 = test system: T2, O10G4
T2 sequence (whole entry): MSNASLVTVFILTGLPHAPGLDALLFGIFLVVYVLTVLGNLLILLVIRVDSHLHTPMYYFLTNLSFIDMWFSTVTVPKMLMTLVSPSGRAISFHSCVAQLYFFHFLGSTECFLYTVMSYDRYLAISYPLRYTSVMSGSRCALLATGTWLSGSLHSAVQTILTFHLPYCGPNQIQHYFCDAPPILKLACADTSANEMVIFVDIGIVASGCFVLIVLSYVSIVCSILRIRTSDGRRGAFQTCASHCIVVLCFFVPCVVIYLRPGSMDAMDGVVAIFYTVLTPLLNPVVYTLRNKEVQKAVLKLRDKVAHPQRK
In short: as §1

O10G9 = test system: T3, O10G9
T3 sequence (whole entry): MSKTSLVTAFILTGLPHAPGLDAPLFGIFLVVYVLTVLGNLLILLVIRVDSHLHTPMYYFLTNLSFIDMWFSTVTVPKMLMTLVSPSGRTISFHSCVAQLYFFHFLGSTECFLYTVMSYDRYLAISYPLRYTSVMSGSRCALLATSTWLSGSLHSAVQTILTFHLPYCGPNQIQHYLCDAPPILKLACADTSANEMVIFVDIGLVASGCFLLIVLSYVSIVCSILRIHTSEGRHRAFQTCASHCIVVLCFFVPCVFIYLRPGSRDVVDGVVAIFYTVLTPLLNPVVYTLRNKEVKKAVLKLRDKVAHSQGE
In short: as §1

O10H2 = test system: T4, O10H2
T4 sequence (whole entry): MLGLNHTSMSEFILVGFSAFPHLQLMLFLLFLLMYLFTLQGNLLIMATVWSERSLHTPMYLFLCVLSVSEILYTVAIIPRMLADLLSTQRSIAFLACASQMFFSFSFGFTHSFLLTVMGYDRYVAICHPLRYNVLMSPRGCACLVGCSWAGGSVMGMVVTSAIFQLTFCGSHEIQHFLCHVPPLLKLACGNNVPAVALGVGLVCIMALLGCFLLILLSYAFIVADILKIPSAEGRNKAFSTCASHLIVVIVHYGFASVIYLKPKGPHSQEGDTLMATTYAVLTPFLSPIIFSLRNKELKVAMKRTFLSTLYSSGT
In short: as §1

O10H5 = test system: T5, O10H5
T5 sequence (whole entry): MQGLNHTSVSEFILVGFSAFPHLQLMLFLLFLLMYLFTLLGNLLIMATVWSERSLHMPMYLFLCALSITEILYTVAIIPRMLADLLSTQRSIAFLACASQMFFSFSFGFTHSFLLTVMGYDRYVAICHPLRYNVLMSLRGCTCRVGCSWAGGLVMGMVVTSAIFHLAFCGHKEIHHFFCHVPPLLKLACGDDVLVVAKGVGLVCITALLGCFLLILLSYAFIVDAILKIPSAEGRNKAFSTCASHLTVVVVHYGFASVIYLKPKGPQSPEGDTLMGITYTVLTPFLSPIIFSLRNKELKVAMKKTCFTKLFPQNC
In short: as §1

O10J1 = test system: T6, O10J1
T6 sequence (whole entry): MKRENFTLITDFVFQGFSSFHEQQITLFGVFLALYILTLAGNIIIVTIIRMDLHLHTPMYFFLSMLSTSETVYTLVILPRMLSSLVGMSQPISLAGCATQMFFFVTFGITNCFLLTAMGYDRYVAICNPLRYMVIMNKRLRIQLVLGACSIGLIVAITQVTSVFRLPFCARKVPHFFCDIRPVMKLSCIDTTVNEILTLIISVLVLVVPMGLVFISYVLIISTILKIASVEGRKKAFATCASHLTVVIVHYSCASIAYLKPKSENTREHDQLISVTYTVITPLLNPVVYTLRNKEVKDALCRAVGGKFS
In short: as §1

O10J3 = test system: T7, O10J3
T7 sequence (whole entry): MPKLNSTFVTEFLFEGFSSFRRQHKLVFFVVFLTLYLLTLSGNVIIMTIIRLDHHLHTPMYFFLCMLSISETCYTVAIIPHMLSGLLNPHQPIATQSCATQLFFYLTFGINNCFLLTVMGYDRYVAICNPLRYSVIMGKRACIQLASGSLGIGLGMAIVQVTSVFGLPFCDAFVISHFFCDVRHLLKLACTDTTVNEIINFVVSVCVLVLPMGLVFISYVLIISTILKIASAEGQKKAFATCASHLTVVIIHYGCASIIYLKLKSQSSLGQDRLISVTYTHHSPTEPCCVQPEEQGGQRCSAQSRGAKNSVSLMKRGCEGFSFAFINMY
In short: as §1

O10J5 = test system: T8, O10J5
T8 sequence (whole entry): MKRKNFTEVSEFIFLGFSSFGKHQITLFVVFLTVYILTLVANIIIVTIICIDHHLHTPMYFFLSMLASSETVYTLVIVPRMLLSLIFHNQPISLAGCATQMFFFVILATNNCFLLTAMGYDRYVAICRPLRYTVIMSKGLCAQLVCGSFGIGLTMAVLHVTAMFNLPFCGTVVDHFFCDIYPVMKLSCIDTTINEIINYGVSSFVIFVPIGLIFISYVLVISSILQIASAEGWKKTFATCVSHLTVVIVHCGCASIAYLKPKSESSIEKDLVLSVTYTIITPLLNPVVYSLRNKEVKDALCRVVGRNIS
In short: as §1

O10P1 = test system: T9, O10P1
T9 sequence (whole entry): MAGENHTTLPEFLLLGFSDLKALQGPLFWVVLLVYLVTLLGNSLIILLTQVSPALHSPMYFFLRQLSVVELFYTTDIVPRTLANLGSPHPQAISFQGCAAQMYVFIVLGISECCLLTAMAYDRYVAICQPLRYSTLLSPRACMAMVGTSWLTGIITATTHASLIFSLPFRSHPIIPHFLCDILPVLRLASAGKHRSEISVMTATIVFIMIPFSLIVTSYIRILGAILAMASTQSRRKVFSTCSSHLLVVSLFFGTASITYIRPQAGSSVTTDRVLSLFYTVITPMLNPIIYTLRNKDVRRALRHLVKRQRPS
In short: as §1

O10Q1 = test system: T10, O10Q1
T10 sequence (whole entry): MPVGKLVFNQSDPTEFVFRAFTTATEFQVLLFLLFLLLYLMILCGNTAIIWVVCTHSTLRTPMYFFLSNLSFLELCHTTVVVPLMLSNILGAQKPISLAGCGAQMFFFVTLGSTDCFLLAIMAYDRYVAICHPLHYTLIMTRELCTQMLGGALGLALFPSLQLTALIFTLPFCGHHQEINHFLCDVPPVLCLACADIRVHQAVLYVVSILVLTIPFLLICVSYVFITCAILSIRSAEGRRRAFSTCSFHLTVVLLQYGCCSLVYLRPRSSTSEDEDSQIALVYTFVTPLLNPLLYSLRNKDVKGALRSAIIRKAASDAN
In short: as §1

O10R2 [1] = test system: T11, O10R2
T11 sequence (whole entry): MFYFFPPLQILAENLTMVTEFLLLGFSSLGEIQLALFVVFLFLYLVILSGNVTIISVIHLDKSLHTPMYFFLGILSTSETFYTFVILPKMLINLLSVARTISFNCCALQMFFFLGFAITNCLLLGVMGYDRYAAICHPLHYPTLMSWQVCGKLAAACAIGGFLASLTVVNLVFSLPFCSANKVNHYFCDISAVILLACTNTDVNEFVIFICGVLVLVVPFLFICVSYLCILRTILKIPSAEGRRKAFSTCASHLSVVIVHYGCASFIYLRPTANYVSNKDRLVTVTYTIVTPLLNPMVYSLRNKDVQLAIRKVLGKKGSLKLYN
In short: as §1

O10R2 [2] = test system: T12, O10R2; remark: listed apart in the source
T12 sequence (whole entry): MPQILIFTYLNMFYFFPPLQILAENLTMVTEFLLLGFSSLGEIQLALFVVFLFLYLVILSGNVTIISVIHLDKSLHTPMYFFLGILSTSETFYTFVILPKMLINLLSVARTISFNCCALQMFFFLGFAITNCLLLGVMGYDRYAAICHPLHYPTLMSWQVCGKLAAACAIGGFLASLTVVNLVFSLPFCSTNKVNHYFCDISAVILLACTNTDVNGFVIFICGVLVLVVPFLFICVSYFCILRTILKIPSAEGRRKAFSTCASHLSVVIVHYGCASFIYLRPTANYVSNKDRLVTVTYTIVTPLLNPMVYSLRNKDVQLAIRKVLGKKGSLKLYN
In short: as §1

O10V1 = test system: T13, O10V1
T13 sequence (whole entry): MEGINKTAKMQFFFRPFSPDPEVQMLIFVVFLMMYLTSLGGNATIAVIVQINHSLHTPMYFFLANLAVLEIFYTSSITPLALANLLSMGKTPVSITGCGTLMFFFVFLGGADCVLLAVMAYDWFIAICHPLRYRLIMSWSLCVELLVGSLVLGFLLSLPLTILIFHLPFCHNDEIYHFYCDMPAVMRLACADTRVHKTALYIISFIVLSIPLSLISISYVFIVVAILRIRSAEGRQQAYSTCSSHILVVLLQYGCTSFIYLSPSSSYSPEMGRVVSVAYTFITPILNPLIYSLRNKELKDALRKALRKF
In short: as §1

O10W1 = test system: T14, O10W1
T14 sequence (whole entry): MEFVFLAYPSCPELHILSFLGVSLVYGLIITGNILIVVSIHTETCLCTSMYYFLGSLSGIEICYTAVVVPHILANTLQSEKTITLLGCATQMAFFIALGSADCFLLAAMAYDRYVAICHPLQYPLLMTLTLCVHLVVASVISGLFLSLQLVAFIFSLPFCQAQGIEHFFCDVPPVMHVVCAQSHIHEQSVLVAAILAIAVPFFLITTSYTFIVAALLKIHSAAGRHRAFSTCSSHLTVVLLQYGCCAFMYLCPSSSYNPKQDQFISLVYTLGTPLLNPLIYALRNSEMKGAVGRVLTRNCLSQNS
In short: as §1

O10X1 = test system: T15, O10X1
T15 sequence (whole entry): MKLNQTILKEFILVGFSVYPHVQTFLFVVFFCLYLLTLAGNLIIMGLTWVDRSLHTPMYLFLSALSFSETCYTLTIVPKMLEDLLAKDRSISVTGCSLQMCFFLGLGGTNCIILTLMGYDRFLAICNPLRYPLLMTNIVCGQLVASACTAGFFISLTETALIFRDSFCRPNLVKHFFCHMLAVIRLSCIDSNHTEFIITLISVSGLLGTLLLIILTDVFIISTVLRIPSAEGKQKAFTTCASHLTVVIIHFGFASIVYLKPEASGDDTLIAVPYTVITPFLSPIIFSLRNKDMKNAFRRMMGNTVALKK
In short: as §1

O11G2 = test system: T16, O11G2
T16 sequence (whole entry): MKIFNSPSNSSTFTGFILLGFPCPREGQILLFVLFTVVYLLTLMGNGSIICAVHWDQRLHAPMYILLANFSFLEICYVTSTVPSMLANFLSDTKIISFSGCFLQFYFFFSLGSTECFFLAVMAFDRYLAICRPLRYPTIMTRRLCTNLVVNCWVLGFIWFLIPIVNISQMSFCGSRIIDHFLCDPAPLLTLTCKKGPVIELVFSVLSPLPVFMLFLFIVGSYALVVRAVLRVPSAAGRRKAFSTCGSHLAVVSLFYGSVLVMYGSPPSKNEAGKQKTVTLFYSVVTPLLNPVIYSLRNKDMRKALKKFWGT
In short: as §1

O11H1 [3] = test system: T17, O11H1
T17 sequence (whole entry): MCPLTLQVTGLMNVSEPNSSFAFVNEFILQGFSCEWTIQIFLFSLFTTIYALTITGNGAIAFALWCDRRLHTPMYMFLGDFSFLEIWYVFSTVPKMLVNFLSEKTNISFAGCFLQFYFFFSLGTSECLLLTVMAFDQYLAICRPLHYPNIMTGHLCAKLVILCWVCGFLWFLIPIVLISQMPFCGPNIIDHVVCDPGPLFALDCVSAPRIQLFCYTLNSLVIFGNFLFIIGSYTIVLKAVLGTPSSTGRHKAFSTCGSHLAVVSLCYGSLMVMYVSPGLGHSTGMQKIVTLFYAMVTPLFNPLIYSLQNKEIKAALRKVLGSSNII
In short: as §1

O11H1 [4] = test system: T18, O11H1; remark: listed apart in the source
T18 sequence (whole entry): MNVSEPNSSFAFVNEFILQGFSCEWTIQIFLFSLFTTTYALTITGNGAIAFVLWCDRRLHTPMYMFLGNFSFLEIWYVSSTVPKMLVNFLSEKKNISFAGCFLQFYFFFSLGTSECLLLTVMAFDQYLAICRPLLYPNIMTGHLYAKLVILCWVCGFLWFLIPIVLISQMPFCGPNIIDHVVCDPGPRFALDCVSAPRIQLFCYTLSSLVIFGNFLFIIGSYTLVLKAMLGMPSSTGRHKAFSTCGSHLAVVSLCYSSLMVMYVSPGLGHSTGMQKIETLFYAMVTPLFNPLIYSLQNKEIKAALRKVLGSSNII
In short: as §1

O11H2 = test system: T19, O11H2
T19 sequence (whole entry): T17 sequence (whole entry) with F90S, T105K, H146L, C156Y, M181K, V192I, N218S, I235L, T243M, V289E
In short: as §1

O11H4 = test system: T20, O11H4
T20 sequence (whole entry): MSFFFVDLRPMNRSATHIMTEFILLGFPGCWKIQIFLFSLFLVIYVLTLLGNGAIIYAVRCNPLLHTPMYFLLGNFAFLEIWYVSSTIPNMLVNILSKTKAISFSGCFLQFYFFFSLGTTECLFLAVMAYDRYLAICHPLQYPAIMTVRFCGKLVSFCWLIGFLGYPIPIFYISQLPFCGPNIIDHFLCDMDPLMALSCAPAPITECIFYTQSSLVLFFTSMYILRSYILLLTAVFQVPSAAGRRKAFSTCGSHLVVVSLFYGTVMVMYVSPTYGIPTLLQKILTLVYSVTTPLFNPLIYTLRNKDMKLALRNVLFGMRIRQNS
In short: as §1

Measured: odorant receptor agonist call

CCC(C)=O
inactive: all assays above
